Results deposited as PubChem BioAssay AID504774 (Drosophila RNAi Screening Center, 2011).
Purpose: 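Fly genes whose loss alters survival after alkylation damage to DNA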 (primary screen). Cell system: Drosophila Kc167 cells. Reagents: long dsRNA against Drosophila genes, about 0.25 µg dsRNA per well. Time to read-out: about 6 days: 3 days knock-down, then 3 days with or without MMS. Treatment: methyl methanesulphonate 0.004% (w/v) for 3 days after knock-down. Read-out: 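ATP-dependent luminescence as a measure of live cells in MMS-exposed wells, quantile normalised within each plate, with replicate values also given as a mean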. Scale: mean viability with MMS: higher = more surviving cells after MMS.
The deposit covers about 23,000 reagents; this is an unselected part of those that have a named target and a result. 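Values are quantile-normalised luminescence on an arbitrary scale; higher means more cells surviving MMS.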 Names joined by + are all predicted targets of the reagent. Not all columns of the deposit are shown.

glob1 (GeneID 41930) [DRSC16959] scored mean viability with MMS 3.47e6. MED18 (GeneID 31140) [DRSC18549] showed mean viability with MMS 3.54e6. Against CG9512 (GeneID 32419) [DRSC20189], the values are mean viability with MMS 3.65e6. Silencing of CG9673 (GeneID 32649) [DRSC20202] resulted in: mean viability with MMS 3.56e6. CG7900 (GeneID 40957) [DRSC16336] scored mean viability with MMS 3.47e6. Knock-down of CG7900 (GeneID 40957) [DRSC21343] came out at: mean viability with MMS 3.31e6.

Silencing of TfAP-2 (GeneID 40398) [DRSC11601] came out at: mean viability with MMS 3.60e6. Against Kdm2 (GeneID 41090) [DRSC14286], the values are mean viability with MMS 3.45e6. Against CG16719 (GeneID 39131) [DRSC10222], the values are mean viability with MMS 3.48e6. CG10035 (GeneID 41511) [DRSC14177] gave mean viability with MMS 3.65e6. Knock-down of CG3294 (GeneID 33677) [DRSC00590] resulted in: mean viability with MMS 3.57e6. For bdl (GeneID 33635) [DRSC00271], the values are mean viability with MMS 3.54e6.

For CG10384 (GeneID 37567) [DRSC03933], the values are mean viability with MMS 3.54e6. CG10384 (GeneID 37567) [DRSC04067] gave mean viability with MMS 3.04e6. For CG31104 (GeneID 43054) [DRSC14658] the deposit lists mean viability with MMS 3.55e6. Knock-down of CG14966 (GeneID 38390) [DRSC08425] gave: mean viability with MMS 3.40e6. Against CG4467 (GeneID 42747) [DRSC15585], the values are mean viability with MMS 3.56e6. CG13255 (GeneID 50109) [DRSC11702] scored mean viability with MMS 3.57e6.

Against CG9806 (GeneID 31994) [DRSC18444] the deposit lists mean viability with MMS 3.56e6. Knock-down of CG9265 (GeneID 35369) [DRSC03178] gave: mean viability with MMS 3.57e6. CG9265 (GeneID 35369) [DRSC03179] showed mean viability with MMS 3.55e6. CG5541 (GeneID 2768877) [DRSC19946] gave mean viability with MMS 3.72e6. After knock-down of alpha-Est4aPsi (GeneID 3772290) [DRSC12473], the record shows mean viability with MMS 3.40e6. After knock-down of CG2233 (GeneID 31721) [DRSC18217] the results were mean viability with MMS 3.57e6.

CG13380 + CG4174 [DRSC09988] scored mean viability with MMS 3.55e6. CG13380 + CG4174 [DRSC10406] scored mean viability with MMS 3.53e6. Knock-down of drpr (GeneID 38218) [DRSC08143] gave: mean viability with MMS 3.57e6. After knock-down of drpr (GeneID 38218) [DRSC08525], the screen gave mean viability with MMS 3.57e6. Against CG11362 (GeneID 37574) [DRSC04106], the entry reads mean viability with MMS 3.72e6. Depletion of CG11362 (GeneID 37574) [DRSC22032] gave: mean viability with MMS 3.75e6.

Depletion of Hakai (GeneID 35256) [DRSC02031] gave: mean viability with MMS 3.51e6. With knock-down of Gr92a (GeneID 117473) [DRSC21631], the screen gave mean viability with MMS 3.47e6. Against CG14062 (GeneID 43389) [DRSC14725], the values are mean viability with MMS 3.67e6. Cyp6a8 (GeneID 36666) [DRSC07384] gave mean viability with MMS 3.25e6. BuGZ (GeneID 35004) [DRSC02642] gave mean viability with MMS 3.10e6. Against BuGZ (GeneID 35004) [DRSC02643], the entry reads mean viability with MMS 3.48e6.

For CG34041 (GeneID 3885583) [DRSC22276] the deposit lists mean viability with MMS 3.45e6. Depletion of CG34022 (retired record) (GeneID 3885663) [DRSC07949] resulted in: mean viability with MMS 3.64e6. After knock-down of spin (GeneID 45380) [DRSC07176], the record shows mean viability with MMS 3.65e6. spin (GeneID 45380) [DRSC22271] scored mean viability with MMS 3.60e6. CG10916 (GeneID 37081) [DRSC06012] gave mean viability with MMS 3.58e6. Against CG14854 (GeneID 41761) [DRSC14978], the values are mean viability with MMS 3.57e6.

For ProtB (GeneID 34867) [DRSC03373], the values are mean viability with MMS 3.50e6. With knock-down of Vha36-3 (GeneID 31235) [DRSC18615] the results were mean viability with MMS 3.61e6. After knock-down of CG11658 (GeneID 39319) [DRSC09852], the screen gave mean viability with MMS 3.55e6.

Part of the list above in another layout.
| gene | amplicon | mean viability with MMS |
| --- | --- | --- |
| spin (GeneID 45380) | DRSC07176 | 3.65e6 |
| spin (GeneID 45380) | DRSC22271 | 3.60e6 |
| CG10916 (GeneID 37081) | DRSC06012 | 3.58e6 |
| CG14854 (GeneID 41761) | DRSC14978 | 3.57e6 |
| ProtB (GeneID 34867) | DRSC03373 | 3.50e6 |
| Vha36-3 (GeneID 31235) | DRSC18615 | 3.61e6 |
| CG11658 (GeneID 39319) | DRSC09852 | 3.55e6 |
